PubChem BioAssay AID1224828, NIAID | 2016
Screen: 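Knock-downs that increase or decrease LPS-induced p65 nuclear translocation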 (primary screen). Cells: mouse RAW264.7 G9 macrophage reporter cells (GFP-p65, Tnf promoter-mCherry). Knock-down reagent: siRNA pool against mouse genes, 100 nM. Duration: 2 days siRNA transfection, then 40 min LPS before fixation. Conditions: LPS (Salmonella minnesota R595) at 10 ng/ml. Measured: 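Microscopy ratio of nuclear to perinuclear-ring GFP-p65 signal, scaled to the plate median; gene score is the average of two replicate robust z-scores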. Direction: p65 translocation robust z-score: higher = more nuclear NF-kappaB p65 after LPS than the plate median; nuclear/cytoplasmic p65 ratio: higher = more nuclear NF-kappaB p65. Call rule: 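Active if robust z is above 3.3 (negative regulators) or below -1.56, the Tlr4 control median (positive regulators); activity score 50 or more; control wells not called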. Meaning of the calls: active = hit (p65 shift raised or lowered); inactive = no clear change.
In all, the deposit lists about 17,000 reagents; shown is a random part of them. 762 of all reagents (4.5%) count as active. 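Active calls include both raised and lowered p65 entry, mostly lowered; wells with fewer than 50 cells lack a z-score.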 Raw values vary from plate to plate and are shown uncorrected. A number with no mark means an inactive call. The numbers tell different reagents against one gene apart.

| Gene | reagent | p65 translocation robust z-score | nuclear/cytoplasmic p65 ratio, rep 1 | nuclear/cytoplasmic p65 ratio, rep 2 | low cell count flag |
| --- | --- | --- | --- | --- | --- |
| Zfp553 (GeneID 233887) | 1 | -0.3 | 1.39 | 1.2 | enough cells to score |
| Or4k49 (GeneID 258886) | 1 | -1.22 | 1.42 | 1.08 | enough cells to score |
| Xxylt1 (GeneID 268880) | 1 | 1.71 | 1.89 | 1.92 | enough cells to score |
| Pdgfra (GeneID 18595) | 1 | 0.94 | 1.87 | 1.47 | enough cells to score |
| Gabrb2 (GeneID 14401) | 1 | 0.3 | 1.34 | 1.54 | enough cells to score |
| Gabrb2 (GeneID 14401) | 2 | 2.16 | 1.68 | 1.86 | enough cells to score |
| Tspan6 (GeneID 56496) | 1 | 1.09 | 1.61 | 1.22 | enough cells to score |
| Cdh1 (GeneID 12550) | 1 | 3.3 | 2.01 | 1.72 | enough cells to score |

The list goes on (3 carried over from the part before).
| Gene | reagent | p65 translocation robust z-score | nuclear/cytoplasmic p65 ratio, rep 1 | nuclear/cytoplasmic p65 ratio, rep 2 | low cell count flag |
| --- | --- | --- | --- | --- | --- |
| Gabrb2 (GeneID 14401) | 2 | 2.16 | 1.68 | 1.86 | enough cells to score |
| Tspan6 (GeneID 56496) | 1 | 1.09 | 1.61 | 1.22 | enough cells to score |
| Cdh1 (GeneID 12550) | 1 | 3.3 | 2.01 | 1.72 | enough cells to score |
| Saa1 (GeneID 20208) | 1 | -0.5 | 1.43 | 1.54 | enough cells to score |
| Usp10 (GeneID 22224) | 1 | -0.23 | 1.54 | 1.42 | enough cells to score |
| Tor4a (GeneID 227612) | 1 | -1.33 | 1.26 | 1.34 | enough cells to score |
| Cckar (GeneID 12425) | 1 | -0.1 | 1.52 | 1.3 | enough cells to score |
| Speer4a1 (GeneID 75657) | 1 | – | 1.36 | 1.17 | fewer than 50 cells per well; well left out of scoring |
| Slc22a5 (GeneID 20520) | 1 | -0.12 | 1.51 | 1.49 | enough cells to score |
| Slc66a3 (GeneID 217430) | 1 | 0.45 | 1.39 | 1.54 | enough cells to score |
| Rnf185 (GeneID 193670) | 1 | -0.66 | 1.34 | 1.3 | enough cells to score |
| Jazf1 (GeneID 231986) | 1 | 0.36 | 1.67 | 1.73 | enough cells to score |
| 4933436E20Rik (retired record) (GeneID 71202) | 1 | 1.09 | 1.35 | 1.61 | enough cells to score |
| Zc3h3 (GeneID 223642) | 1 | -0.54 | 1.36 | 1.17 | enough cells to score |
| Clba1 (GeneID 217887) | 1 | 0.72 | 1.7 | 1.95 | enough cells to score |
| Krt4 (GeneID 16682) | 1 | -0.89 | 1.35 | 1.27 | enough cells to score |
| Fads6 (GeneID 328035) | 1 | 1.98 | 1.68 | 1.82 | enough cells to score |
| Tmem167 (GeneID 66074) | 1 | 0.99 | 1.61 | 1.65 | enough cells to score |
| Kel (GeneID 23925) | 1 | 1.19 | 1.52 | 1.64 | enough cells to score |
